Results from US20130197189A1, “Method For Synthesizing A Cyclic Multivalent Peptide Using A Thiol-Mediated Reaction” (The Regents of the University of Colorado, A Body Corporate, priority 2010, published 2013).
Not every detail of the peptide structures is certain; ends, links or a residue may be inferred. Some results were stated once for a whole list of compounds, not compound by compound.

Target: T1, GPIIb/IIIa (Homo sapiens, UniProt P05106+P08514)
T1 construct: purchased Enzyme Research Laboratories (South Bend, Ind.)
T1 sequence (P08514 32-887 limits assumed): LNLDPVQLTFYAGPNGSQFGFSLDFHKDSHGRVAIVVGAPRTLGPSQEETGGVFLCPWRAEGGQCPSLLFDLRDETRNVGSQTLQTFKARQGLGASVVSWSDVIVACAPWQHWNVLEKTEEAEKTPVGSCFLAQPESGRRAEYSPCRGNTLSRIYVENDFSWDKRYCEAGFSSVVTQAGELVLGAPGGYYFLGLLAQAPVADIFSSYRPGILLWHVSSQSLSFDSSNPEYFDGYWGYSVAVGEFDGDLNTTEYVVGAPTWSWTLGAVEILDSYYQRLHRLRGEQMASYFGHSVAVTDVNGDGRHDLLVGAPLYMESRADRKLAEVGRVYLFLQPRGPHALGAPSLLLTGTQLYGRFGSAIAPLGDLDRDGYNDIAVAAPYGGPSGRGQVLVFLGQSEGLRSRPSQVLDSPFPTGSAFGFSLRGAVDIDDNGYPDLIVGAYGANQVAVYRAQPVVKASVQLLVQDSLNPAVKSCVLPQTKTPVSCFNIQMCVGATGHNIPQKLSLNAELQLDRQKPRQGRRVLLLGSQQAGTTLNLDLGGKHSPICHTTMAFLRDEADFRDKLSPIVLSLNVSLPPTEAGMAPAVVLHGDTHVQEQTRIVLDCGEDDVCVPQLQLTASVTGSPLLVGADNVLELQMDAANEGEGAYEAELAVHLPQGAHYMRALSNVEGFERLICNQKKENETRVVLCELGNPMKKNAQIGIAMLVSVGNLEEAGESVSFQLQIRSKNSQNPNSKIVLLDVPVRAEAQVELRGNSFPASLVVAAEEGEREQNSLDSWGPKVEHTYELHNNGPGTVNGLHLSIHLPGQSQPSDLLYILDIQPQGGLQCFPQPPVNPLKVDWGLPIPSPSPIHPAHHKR
T1 sequence (P05106 27-788): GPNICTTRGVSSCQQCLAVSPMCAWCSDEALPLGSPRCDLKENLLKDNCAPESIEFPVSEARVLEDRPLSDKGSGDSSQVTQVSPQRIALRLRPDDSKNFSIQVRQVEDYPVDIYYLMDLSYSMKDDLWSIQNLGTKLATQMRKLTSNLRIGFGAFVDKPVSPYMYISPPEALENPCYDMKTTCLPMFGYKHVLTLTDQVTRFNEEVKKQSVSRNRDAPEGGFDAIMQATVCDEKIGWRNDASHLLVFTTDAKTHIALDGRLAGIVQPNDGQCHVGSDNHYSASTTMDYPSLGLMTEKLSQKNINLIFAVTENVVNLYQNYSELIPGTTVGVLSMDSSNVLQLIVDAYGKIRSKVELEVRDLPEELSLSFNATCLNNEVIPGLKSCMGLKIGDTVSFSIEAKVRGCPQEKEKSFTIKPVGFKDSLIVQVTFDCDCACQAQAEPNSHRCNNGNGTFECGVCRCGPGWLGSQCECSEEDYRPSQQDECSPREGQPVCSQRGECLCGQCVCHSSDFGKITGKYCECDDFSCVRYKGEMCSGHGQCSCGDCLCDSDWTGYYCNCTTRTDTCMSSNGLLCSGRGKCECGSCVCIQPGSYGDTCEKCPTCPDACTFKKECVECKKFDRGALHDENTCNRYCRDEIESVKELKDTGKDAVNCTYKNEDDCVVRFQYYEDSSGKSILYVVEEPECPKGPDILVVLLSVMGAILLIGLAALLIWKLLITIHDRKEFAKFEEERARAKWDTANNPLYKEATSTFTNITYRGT
Experiment: Fibrinogen binding ELISA (competitive binding ELISA: inhibition of fibrinogen binding to GPIIb/IIIa)
Procedure: A 96-well Maxisorp plate (Nunc) was coated with GPIIb/IIIa (10 μg mL^−1, 100 μL) and incubated at 4° C. overnight. The plate was washed (5×) with buffer (50 mM Tris-HCl, 100 mM NaCl, 2 mM CaCl2, 0.05% Tween20, pH 7.4). Blocking solution (3.5% BSA, 100 μL) was added to the well and incubated at 37° C. for 3 hours. The plate was washed (5×) with buffer. Peptides (50 μL) and fibrinogen (40nM, 50 μL) were added to the plate and incubated at room temperature for 3 hours. The plate was washed (5×) and antibody (goat polyclonal to fibrinogen (HRP), 1:20,000 dilution, 100 μL) was added to the plate and incubated for 1 hour at room temperature. The plate was washed (5×) and substrate (2,2′-azino-bis(3-ethylbenzthiazoline-6-sulphonic acid, ABTS, 100 μL) was added to the wells and allowed to react for 5 minutes. The absorbance was measured (Perkin Elmer Wallac Victor2 1420 Multilabel Counter) at 405 nm. The data was analyzed using Graphpad Prism 5. […]
A competitive binding ELISA was used to determine the potency of the multivalent RGD peptides. […] The ELISA was performed to quantitate the inhibition of bound fibrinogen in the presence of RGD peptide. […] The substrate (2,2′-Azinobis[3-ethylbenzothiazoline-6-sulfonic acid]-diammonium salt-ABTS) was added and the absorbance measured at 405 nm. […]

Row | Structure (SMILES) | decreased IC50 value relative to monomeric species (multivalent RGD vs its monomer (compound #1 or #2)) | IC50 (Table 2, mean ± SEM, triplicate, repeated twice, peptide concentration as total molecule molarity, not normalized [RGD]) [µM]
1 | N=C(N)NCCC[C@@H]1NC(=O)[C@@H](NC(=O)CNC(=O)CNC(=O)[C@@H](N)CSCC(CCC(=O)NCCCC[C@H](NC(=O)CN)C(=O)NCC(=O)NCCCCCC(=O)NCC(=O)N[C@@H](CCCCNC(=O)CCC(CSC[C@H](N)C(=O)NCC(=O)NCC(=O)N[C@H]2CSCCCOC(=O)NCCCC[C@@H](C(N)=O)NC(=O)[C@@H](Cc3ccccc3)NC(=O)[C@H](CO)NC(=O)[C@H](CC(=O)O)NC(=O)CNC(=O)[C@H](CCCNC(=N)N)NC2=O)SC[C@H](N)C(=O)NCC(=O)NCC(=O)N[C@H]2CSCCCOC(=O)NCCCC[C@@H](C(N)=O)NC(=O)[C@@H](Cc3ccccc3)NC(=O)[C@H](CO)NC(=O)[C@H](CC(=O)O)NC(=O)CNC(=O)[C@H](CCCNC(=N)N)NC2=O)C(=O)NCC(N)=O)SC[C@H](N)C(=O)NCC(=O)NCC(=O)N[C@H]2CSCCCOC(=O)NCCCC[C@@H](C(N)=O)NC(=O)[C@@H](Cc3ccccc3)NC(=O)[C@H](CO)NC(=O)[C@H](CC(=O)O)NC(=O)CNC(=O)[C@H](CCCNC(=N)N)NC2=O)CSCCCOC(=O)NCCCC[C@@H](C(N)=O)NC(=O)[C@@H](Cc2ccccc2)NC(=O)[C@H](CO)NC(=O)[C@H](CC(=O)O)NC(=O)CNC1=O (some centres unmarked) [Compound #7] | 1.5-2 orders of magnitude | –
2 | N=C(N)NCCC[C@@H]1NC(=O)[C@@H](NC(=O)CNC(=O)CNC(=O)[C@@H](N)CSCC(CCC(=O)NCCCC[C@H](NC(=O)CN)C(=O)NCC(N)=O)SC[C@H](N)C(=O)NCC(=O)NCC(=O)N[C@H]2CSCCCOC(=O)NCCCC[C@@H](C(N)=O)NC(=O)[C@@H](Cc3ccccc3)NC(=O)[C@H](CO)NC(=O)[C@H](CC(=O)O)NC(=O)CNC(=O)[C@H](CCCNC(=N)N)NC2=O)CSCCCOC(=O)NCCCC[C@@H](C(N)=O)NC(=O)[C@@H](Cc2ccccc2)NC(=O)[C@H](CO)NC(=O)[C@H](CC(=O)O)NC(=O)CNC1=O (some centres unmarked) [Compound #6] | – | 0.14 ± 0.03
